{"source": "the supplement of paper PMC4683952", "note": "Counter-ions that a name gives are not always drawn. This is one part of the list. No stated cut-off is given here; in the data, active = 2.5 or more and inactive = the rest. Single values are uncertain here, since repeats match poorly."}
{"test_system": "Lgr5 (MarsCy1-Lgr5-EGFP, U2OS)", "assay": "cell-surface Lgr5 expression (SCi1 fluorescence, background-subtracted) relative to WT control (fold of WT control); higher = more Lgr5 at the plasma membrane", "details": "U2OS MarsCy1-Lgr5-EGFP stable; treatment time: overnight; library: Prestwick; 20 µM"}
{"smiles": "Cn1c([N+](=O)[O-])cnc1COC(N)=O", "note": "[Ronidazole]", "cell-surface Lgr5 expression": "inactive: 1.47"}
{"smiles": "O=c1c(O)c(-c2ccc(O)c(O)c2)oc2cc(O)cc(O)c12", "note": "[Quercetine dihydrate]", "cell-surface Lgr5 expression": "inactive: 1.94"}
{"smiles": "COc1ccc(C(=O)c2ccccc2O)c(O)c1", "note": "[Dioxybenzone]", "cell-surface Lgr5 expression": "inactive: 1.94"}
{"smiles": "CC(C)(C)NC[C@H](O)COc1ccccc1C1CCCC1", "note": "[Penbutolol sulfate]", "cell-surface Lgr5 expression": "inactive: 1.54"}
{"smiles": "CCCCC[C@H](O)/C=C/[C@H]1[C@H](O)CC(=O)[C@@H]1CCCCCCC(=O)O", "note": "[Alprostadil]", "cell-surface Lgr5 expression": "inactive: 1.51"}
{"smiles": "CCOc1ccc(NC(C)=O)cc1", "note": "[Phenacetin]", "cell-surface Lgr5 expression": "inactive: 1.9"}
{"smiles": "CN1CCC[C@@H]1CCO[C@](C)(c1ccccc1)c1ccc(Cl)cc1", "note": "[Clemastine fumarate]", "cell-surface Lgr5 expression": "inactive: 1.2"}
{"smiles": "CC(C(=O)O)c1ccc(C(=O)c2cccs2)cc1", "note": "(stereo not given) [Suprofen]", "cell-surface Lgr5 expression": "inactive: 2.11"}
{"smiles": "C#C[C@]1(O)CC[C@H]2[C@@H]3CCC4=C(CCC(=O)C4)[C@H]3CC[C@@]21C", "note": "[Norethynodrel]", "cell-surface Lgr5 expression": "inactive: 1.22"}
{"smiles": "NS(=O)(=O)c1cc2c(cc1Cl)NC(CC1CCCC1)NS2(=O)=O", "note": "(stereo not given) [Cyclopenthiazide]", "cell-surface Lgr5 expression": "inactive: 1.23"}
{"smiles": "CC(C)(C)NCC(O)c1cc(O)cc(O)c1", "note": "(stereo not given) [Terbutaline hemisulfate]", "cell-surface Lgr5 expression": "inactive: 2.11"}
{"smiles": "CCOC(=O)[N-]c1c[n+](N2CCOCC2)no1", "note": "[Molsidomine]", "cell-surface Lgr5 expression": "active: 3.19"}
{"smiles": "CC[N+](CC)(CC)CCOc1cccc(OCC[N+](CC)(CC)CC)c1OCC[N+](CC)(CC)CC", "note": "[Gallamine triethiodide]", "cell-surface Lgr5 expression": "inactive: 0.889"}
{"smiles": "NCc1ccc(S(N)(=O)=O)cc1", "note": "[Mafenide hydrochloride]", "cell-surface Lgr5 expression": "inactive: 1.13"}
{"smiles": "CN[C@@H]1[C@H](O[C@H]2[C@H](O[C@H]3[C@H](O)[C@@H](O)[C@H](NC(=N)N)[C@@H](O)[C@@H]3NC(=N)N)O[C@@H](C)[C@]2(O)CO)O[C@@H](CO)[C@H](O)[C@H]1O", "note": "[Dihydrostreptomycin sulfate]", "cell-surface Lgr5 expression": "inactive: 0.569"}
{"smiles": "CC/C(=C(\\c1ccccc1)c1ccc(OCCN(C)C)cc1)c1ccccc1", "note": "[Tamoxifen citrate]", "cell-surface Lgr5 expression": "inactive: 1.13"}
{"smiles": "CCc1oc2ccccc2c1C(=O)c1cc(Br)c(O)c(Br)c1", "note": "[Benzbromarone]", "cell-surface Lgr5 expression": "inactive: 0.487"}
{"smiles": "CN(C)CCOC(c1ccc(Cl)cc1)c1ccccn1", "note": "(stereo not given) [Carbinoxamine maleate salt]", "cell-surface Lgr5 expression": "inactive: 2.3"}
{"smiles": "NC(=O)NC1NC(=O)NC1=O", "note": "(stereo not given) [Allantoin]", "cell-surface Lgr5 expression": "inactive: 1.51"}
{"smiles": "CC(C)NCC(O)c1ccc(O)c(O)c1", "note": "(single isomer, unassigned; (-)) [(-)-Isoproterenol hydrochloride]", "cell-surface Lgr5 expression": "inactive: 2.26"}
